Among the data in publication PMC6325625, “The traffic ATPase PilF interacts with the inner membrane platform of the DNA translocator and type IV pili from Thermus thermophilus” (FEBS Open Bio, 2018) are binding values, retold here.

Sequences of proteins named here, by UniProt entry; tags and fusion partners are left off. A change or cut given only in a name is not applied to a line headed by its entry.
UniProt Q8VRL6: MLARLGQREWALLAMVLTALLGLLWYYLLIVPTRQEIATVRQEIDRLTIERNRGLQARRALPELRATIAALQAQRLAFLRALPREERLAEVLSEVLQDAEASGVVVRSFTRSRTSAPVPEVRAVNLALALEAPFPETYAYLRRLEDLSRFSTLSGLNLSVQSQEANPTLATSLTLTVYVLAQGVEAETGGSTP
UniProt Q8VRL7: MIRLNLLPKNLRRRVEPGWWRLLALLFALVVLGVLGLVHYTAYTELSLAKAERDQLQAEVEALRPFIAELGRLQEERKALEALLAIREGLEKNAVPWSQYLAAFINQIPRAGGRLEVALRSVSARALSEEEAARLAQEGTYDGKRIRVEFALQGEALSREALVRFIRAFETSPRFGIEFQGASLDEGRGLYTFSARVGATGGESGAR

Results are given in words; binding and its absence hold for the method and conditions named. Binding calls can cover weak binding; strength is not graded here. Tags and fused reporters may be left off the sequences shown. For some assays here: In cells and extracts the contact can be indirect.

Test [1] concerns the target PilO-Strep (Thermus thermophilus) (UniProt Q8VRL6). Kind of test: native gel or EMSA; 5-20% clear-native PAGE of purified His6-PilMN-Strep, His6-PilMNO-Strep and His6-PilM; bands of PilMN cut out and run on 14% SDS/PAGE; both purified. A general note: Mobility shift assays separate free from complexed probe on a gel.
Test [2] shares this target. Put plainly: co-purification (Strep-Tactin affinity chromatography); His6-PilM, PilN and PilO-Strep co-produced in E. coli; membranes solubilised with DDM; Strep-Tactin column in MNO buffer pH 8.0, then Superdex 200; SDS/PAGE and western blot (antisera against PilM and PilN, Strep-Tactin HRP for PilO-Strep). A general note: In western blotting, separated proteins are transferred to a membrane and probed.

Test [3] deals with T1, Strep-PilM (N-terminally Strep-tagged PilM) (Thermus thermophilus HB27) (UniProt Q8VRL8).
T1 sequence: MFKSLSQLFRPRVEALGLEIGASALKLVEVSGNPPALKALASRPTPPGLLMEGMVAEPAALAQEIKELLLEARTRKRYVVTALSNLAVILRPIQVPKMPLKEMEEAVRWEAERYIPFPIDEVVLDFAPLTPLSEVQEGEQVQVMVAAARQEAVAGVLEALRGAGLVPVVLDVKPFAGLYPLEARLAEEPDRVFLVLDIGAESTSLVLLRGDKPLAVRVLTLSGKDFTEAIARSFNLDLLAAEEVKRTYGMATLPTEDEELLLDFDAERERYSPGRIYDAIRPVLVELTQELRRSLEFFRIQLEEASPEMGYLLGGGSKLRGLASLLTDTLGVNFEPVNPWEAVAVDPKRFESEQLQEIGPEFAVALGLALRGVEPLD
Kind of test: pull-down; Strep-tagged bait bound to 1 mL Strep-Tactin column, 500 μg purified PilF in 1 mL bicine buffer (100 mM bicine, 200 mM NaCl, 0.02% DDM, pH 8.5) co-incubated 15 min at room temperature; ten washes with MN buffer with 0.02% DDM; eluted with 2.5 mM D-desthiobiotin; SDS/PAGE, Coomassie; both purified.

In the case of “PilN (untagged, co-produced from pET28a-PilMNO) (from UniProt Q8VRL7)”, the binding result in test [1] and in test [2] was “binds” throughout. On to “His6-PilF (traffic ATPase PilF, hexameric complex) (Thermus thermophilus) (enzyme)”, for which the binding result in test [3] is on record as “binds”.

B1: His6-PilM (co-produced with PilN and PilO-Strep from pET28a-PilMNO) (protein, UniProt Q8VRL8 1-377)
chain: T1 sequence
On to B1, for which the binding result in test [1] and in test [2] was “binds” each time.
